In patent US20050250692A1:
These are yes or no findings as the source states them, for the method shown. Some entries that bind do so weakly or less than the wild type. One block for each substance: values may come before it.

The chains behind the UniProt entries cited, without tags or fusion partners. Where a name states a change or a piece, a line headed by the entry shows the natural chain unless it says otherwise. A line that says so, or that is headed by a name, gives the form on record, which may keep a tag or linker. Residues count along the entry.
TβR-V purified from bovine liver plasma membranes (E1BGJ0, form named): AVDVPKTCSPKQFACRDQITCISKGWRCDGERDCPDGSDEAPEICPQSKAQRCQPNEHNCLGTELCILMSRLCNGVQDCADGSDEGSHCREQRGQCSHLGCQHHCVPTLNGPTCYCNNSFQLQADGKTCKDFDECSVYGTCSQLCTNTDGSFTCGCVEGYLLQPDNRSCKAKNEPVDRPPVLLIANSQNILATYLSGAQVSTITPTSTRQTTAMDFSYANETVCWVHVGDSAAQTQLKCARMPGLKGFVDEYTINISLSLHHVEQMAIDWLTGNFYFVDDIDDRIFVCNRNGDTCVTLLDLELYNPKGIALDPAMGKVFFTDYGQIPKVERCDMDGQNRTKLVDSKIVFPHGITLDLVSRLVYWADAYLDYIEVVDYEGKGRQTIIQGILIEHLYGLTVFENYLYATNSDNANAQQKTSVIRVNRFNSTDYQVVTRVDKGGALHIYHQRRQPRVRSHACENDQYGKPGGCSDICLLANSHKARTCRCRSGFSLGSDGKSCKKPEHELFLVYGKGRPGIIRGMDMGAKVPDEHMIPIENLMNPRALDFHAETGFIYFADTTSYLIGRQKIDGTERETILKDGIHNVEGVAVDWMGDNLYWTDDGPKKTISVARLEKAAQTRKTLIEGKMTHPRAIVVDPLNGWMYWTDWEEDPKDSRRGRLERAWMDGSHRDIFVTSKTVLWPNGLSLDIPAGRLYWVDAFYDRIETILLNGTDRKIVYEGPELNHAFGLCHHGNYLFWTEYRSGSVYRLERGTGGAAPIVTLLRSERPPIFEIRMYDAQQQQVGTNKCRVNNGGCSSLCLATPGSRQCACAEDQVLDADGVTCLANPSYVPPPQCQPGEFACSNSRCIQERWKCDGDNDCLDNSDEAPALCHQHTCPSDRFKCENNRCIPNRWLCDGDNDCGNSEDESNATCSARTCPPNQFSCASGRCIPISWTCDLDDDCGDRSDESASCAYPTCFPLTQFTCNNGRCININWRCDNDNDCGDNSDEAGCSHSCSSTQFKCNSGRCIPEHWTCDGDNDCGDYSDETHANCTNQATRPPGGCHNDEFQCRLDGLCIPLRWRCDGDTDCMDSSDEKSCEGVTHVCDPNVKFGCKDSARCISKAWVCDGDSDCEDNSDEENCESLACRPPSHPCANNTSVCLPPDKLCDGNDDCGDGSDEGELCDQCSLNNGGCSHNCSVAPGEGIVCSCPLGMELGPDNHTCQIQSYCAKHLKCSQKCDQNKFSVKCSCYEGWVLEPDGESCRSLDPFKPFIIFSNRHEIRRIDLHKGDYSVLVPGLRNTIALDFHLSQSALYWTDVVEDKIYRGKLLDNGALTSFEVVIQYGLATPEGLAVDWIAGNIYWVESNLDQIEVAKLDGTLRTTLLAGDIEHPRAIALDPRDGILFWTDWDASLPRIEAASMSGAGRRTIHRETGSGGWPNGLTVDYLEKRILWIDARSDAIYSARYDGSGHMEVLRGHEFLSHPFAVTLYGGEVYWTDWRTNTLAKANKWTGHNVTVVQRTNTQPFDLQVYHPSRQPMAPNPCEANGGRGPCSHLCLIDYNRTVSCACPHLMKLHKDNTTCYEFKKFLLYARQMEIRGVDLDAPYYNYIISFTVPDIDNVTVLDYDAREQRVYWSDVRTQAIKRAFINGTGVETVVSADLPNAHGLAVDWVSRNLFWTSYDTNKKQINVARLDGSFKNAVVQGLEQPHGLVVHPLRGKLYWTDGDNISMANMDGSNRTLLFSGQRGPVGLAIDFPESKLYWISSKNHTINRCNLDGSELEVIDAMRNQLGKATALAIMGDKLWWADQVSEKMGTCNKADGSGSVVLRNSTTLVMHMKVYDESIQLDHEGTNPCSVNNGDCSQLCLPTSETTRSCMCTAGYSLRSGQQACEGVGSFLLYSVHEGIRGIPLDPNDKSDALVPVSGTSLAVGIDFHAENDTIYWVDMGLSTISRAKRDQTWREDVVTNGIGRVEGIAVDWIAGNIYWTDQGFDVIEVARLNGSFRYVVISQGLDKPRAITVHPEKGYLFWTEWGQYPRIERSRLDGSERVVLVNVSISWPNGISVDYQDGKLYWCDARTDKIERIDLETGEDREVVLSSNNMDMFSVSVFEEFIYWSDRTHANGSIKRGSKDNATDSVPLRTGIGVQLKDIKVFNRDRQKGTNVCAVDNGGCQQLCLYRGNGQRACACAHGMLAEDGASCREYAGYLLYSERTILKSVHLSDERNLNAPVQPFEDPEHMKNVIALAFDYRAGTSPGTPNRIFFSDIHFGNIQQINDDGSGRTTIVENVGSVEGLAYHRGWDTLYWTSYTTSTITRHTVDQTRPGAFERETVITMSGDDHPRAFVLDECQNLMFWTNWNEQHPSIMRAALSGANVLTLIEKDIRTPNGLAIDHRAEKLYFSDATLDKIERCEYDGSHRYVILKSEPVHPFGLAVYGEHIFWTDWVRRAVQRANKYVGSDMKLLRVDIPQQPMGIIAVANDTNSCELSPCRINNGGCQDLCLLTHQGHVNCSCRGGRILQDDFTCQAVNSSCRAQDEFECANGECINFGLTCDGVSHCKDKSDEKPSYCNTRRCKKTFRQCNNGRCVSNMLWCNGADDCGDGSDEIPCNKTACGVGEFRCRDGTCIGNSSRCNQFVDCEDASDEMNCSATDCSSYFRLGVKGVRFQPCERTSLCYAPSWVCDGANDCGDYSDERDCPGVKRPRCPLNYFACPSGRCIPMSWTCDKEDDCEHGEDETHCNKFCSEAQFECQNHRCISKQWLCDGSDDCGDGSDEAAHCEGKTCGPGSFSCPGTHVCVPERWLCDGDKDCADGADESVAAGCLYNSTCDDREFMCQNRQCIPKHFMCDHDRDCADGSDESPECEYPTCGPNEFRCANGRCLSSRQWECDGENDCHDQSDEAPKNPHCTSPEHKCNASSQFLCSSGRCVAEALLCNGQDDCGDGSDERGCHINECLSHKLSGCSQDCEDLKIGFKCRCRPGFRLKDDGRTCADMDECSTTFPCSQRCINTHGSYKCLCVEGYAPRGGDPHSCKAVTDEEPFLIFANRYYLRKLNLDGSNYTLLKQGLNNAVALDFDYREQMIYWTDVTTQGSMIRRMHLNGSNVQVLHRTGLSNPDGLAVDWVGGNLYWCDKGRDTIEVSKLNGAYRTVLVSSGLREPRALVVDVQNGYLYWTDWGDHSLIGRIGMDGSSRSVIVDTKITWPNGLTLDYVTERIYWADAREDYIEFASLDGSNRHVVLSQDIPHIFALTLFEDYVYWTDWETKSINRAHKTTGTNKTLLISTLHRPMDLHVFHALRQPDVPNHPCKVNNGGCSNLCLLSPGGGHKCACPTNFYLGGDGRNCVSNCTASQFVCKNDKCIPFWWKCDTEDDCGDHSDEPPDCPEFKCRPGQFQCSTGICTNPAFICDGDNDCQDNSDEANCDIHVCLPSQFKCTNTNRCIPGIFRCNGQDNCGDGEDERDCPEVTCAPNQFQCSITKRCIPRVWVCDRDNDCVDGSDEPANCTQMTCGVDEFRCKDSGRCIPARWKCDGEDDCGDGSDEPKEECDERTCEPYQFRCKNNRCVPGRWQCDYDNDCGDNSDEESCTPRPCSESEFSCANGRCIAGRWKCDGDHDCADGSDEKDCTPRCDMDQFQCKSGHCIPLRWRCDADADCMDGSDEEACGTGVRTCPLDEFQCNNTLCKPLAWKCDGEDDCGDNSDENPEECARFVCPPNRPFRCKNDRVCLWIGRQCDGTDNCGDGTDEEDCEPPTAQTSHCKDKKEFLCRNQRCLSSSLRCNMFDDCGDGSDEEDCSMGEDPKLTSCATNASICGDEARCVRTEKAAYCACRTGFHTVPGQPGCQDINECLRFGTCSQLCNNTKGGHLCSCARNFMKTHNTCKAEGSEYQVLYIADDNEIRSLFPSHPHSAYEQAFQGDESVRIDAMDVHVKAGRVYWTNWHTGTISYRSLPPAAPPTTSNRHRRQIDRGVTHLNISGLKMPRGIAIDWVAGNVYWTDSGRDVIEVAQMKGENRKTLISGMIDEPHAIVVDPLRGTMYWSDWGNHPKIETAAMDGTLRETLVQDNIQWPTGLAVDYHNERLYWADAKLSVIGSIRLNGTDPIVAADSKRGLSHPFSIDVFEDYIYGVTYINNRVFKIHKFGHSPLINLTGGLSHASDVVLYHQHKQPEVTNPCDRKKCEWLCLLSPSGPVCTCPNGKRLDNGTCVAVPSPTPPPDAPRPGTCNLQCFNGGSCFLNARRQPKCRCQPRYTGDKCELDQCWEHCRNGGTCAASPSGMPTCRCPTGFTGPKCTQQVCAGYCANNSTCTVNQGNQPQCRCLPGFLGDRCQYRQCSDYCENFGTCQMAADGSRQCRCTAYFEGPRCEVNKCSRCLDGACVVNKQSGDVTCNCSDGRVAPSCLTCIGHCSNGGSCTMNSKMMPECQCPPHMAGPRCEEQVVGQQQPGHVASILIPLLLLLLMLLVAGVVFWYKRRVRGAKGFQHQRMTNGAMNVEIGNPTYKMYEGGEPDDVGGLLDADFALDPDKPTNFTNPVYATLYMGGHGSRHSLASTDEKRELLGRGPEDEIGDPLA
UniProt P17936, residues 28-291: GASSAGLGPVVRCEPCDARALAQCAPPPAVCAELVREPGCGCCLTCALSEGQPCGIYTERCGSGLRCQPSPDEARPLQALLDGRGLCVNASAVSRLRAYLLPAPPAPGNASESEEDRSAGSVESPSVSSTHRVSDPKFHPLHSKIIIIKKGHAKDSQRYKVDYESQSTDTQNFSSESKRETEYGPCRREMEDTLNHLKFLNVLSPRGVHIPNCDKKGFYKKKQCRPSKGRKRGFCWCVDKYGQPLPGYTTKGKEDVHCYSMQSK
UniProt P01137, residues 279-390: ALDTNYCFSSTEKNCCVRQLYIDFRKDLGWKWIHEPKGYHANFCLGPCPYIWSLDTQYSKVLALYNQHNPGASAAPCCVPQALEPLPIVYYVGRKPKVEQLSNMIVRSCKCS

How the values were obtained:
[1] = target: T1, α2M activated by methylamine (α2M*) (human) (UniProt P01023); assay: α2M*-Sepharose 4B affinity chromatography at pH 6 of bovine liver plasma membrane extracts; heavy chain detected by Western blot (data not shown)
T1 sequence (activated by methylamine; 125I-labelled where used as tracer, looked up): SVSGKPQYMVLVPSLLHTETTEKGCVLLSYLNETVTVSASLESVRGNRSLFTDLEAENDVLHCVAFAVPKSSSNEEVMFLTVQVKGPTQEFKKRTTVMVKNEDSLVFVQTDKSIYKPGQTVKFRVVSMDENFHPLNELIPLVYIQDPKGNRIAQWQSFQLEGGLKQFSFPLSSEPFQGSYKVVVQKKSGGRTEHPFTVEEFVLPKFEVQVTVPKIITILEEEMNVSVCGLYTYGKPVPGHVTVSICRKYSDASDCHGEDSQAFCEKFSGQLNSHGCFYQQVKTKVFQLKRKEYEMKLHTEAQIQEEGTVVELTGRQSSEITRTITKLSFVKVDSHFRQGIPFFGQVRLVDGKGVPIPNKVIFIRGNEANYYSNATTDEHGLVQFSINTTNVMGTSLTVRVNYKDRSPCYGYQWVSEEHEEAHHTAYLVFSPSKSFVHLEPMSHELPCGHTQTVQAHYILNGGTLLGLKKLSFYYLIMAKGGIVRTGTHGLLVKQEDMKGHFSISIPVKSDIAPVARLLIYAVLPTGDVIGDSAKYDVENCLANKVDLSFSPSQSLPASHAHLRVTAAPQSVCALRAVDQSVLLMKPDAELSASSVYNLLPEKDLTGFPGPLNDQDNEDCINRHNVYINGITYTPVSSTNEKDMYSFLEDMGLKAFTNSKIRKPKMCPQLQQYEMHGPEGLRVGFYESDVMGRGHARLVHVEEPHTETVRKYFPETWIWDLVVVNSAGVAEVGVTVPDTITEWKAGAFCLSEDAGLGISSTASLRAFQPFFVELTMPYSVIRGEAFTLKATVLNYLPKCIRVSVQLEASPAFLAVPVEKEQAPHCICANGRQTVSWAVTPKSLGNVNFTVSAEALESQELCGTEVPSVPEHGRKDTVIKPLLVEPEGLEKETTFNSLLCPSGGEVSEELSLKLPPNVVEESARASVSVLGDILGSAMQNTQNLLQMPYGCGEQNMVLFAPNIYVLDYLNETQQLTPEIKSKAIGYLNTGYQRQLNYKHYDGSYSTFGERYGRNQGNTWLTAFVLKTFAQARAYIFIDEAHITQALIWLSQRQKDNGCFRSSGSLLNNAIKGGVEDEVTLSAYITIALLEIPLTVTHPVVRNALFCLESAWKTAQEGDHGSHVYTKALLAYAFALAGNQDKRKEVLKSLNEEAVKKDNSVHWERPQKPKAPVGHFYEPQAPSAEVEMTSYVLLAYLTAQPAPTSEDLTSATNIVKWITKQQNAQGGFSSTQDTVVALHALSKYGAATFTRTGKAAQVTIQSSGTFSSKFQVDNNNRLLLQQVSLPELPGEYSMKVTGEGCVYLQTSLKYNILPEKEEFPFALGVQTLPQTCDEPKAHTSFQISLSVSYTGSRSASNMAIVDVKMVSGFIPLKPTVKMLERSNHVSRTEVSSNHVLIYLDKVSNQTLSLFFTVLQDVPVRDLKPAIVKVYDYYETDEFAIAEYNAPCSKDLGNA

[2] = target: TβR-V purified from bovine liver plasma membranes (bovine) (UniProt E1BGJ0); assay: affinity labeling: 10 nM 125I-IGFBP-3 on purified bovine TβR-V, DSS cross-linking, SDS-PAGE, autoradiography
[3] = target: TβR-V purified from bovine liver plasma membranes (bovine) (UniProt E1BGJ0); assay: affinity labeling: 0.1 nM 125I-TGF-β1 on purified bovine TβR-V, DSS cross-linking, SDS-PAGE, autoradiography

binding [1]: binds
Substance: TβR-V purified from bovine liver plasma membranes (from UniProt E1BGJ0 20-4546) (receptor)

binding [2]: binds
Substance: Human IGFBP-3 (expressed in E. Coli, M.W. ~35,000) (from UniProt P17936 28-291) (ligand)

binding [3]: binds
Substance: Human TGF-β1 (from UniProt P01137 279-390) (ligand)
